Assay results: article PMC6562800
Results are given in words; binding and its absence hold for the method and conditions named. Binding seen in cells or lysates may run through a third protein. Some binding calls cover weakened binding; strength is not graded here.

Sequences of proteins named here, by UniProt entry; tags and fusion partners are left off. Residues count along the entry.
UniProt Q99IB8, residues 384-750: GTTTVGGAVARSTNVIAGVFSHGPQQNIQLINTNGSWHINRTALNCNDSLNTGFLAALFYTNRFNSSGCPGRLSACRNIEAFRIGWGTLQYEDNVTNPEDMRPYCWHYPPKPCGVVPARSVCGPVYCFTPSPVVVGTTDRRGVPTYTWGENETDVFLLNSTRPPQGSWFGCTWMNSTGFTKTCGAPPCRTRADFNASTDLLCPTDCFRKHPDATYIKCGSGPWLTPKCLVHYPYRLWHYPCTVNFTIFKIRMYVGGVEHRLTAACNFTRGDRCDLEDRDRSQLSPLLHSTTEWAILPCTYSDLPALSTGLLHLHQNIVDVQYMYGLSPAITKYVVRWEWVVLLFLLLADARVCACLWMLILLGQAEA
UniProt P02649, residues 19-317: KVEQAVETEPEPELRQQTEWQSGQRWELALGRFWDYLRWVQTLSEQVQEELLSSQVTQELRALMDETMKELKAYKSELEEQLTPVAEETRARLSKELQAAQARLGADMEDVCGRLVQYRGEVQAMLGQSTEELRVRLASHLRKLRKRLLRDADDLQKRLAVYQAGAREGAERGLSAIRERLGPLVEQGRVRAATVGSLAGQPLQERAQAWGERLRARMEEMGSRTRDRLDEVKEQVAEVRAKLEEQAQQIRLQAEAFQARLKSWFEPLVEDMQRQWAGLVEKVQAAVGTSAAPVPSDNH

Molecular target: HCV envelope glycoprotein E2 (species recognised by AR3A) (Hepatitis C virus (JFH1)) (UniProt Q99IB8)
Experiment: co-IP; A4HAHCVcc-infected Huh7.5 cells lysed with Tx buffer (1% Triton X-100, 2 mM EDTA, PBS; DRMs preserved); antibodies (AR3A, AR4A, AR5A, A4, anti-HA) on protein G-Sepharose; washed in PBS-0.1% Triton X-100; western blot

**Q.** Which binding does the source give for “Apolipoprotein E (ApoE) (from UniProt P02649 19-317)” here?
**A.** Its binding is “binds”.
